At least one compound was matched to its structure with a doubt left.
Tested on: Macrophage
Experiment: Macrophage polarization after treatment of DNIC in vitro (qPCR)
Assay type: cell-based, human
Conditions: DNIC 0.5 μM
Excerpt: The murine hepatocellular carcinoma (HCC) cell line HCA-1 and the human HCC cell lines JHH-7, Hep3B and human lung fibroblasts (HLF) were provided by Dr. Dan Duda (Massachusetts General Hospital, Boston). The human HCC cell line Mahlavu was provided by Dr. Han-Chung Wu (Academia Sinica, Taiwan). The human monocyte cell line THP-1 (ATCC® TIB-202™) was purchased from ATCC. HUVECs (BCRC H-UV001) were obtained from the Bioresource Collection and Research Center, Food Industry Research and Development Institute (Hsinchu, Taiwan). Cell lines were authenticated and tested for mycoplasma. HCA-1 and Mahlavu cells were cultured in high-glucose Dulbecco's modified Eagle's medium (DMEM); JHH-7 and HLF cells were cultured in DMEM/F12 medium; Hep3B cells were cultured in Minimum Essential Medium Alpha (MEMα) (Sigma-Aldrich, St. Louis, Mo.); THP-1 cells were maintained in RPMI-1640 (Corning, N.Y.). […]
The procedure of reverse transcription quantitative real time PCR was as follows. […] Primers specific for Arignase-1, CCL17, CCL22, IL10, MRC1, CXCL9, IL-1β, TNF-α, CXCL-11, NOS2, NOS3, Snail, Slug, Zeb1, Zeb2, Trim28, Fibronectin, Vimentin, E-cadherin, PD-L1, S1PR1, ANGPT1, PDGF-B, VEGFA, ANGPT2, EGF, IL-6, PPARγ, TGFβ, GAPDH and β-actin were used (Table 2), and relative gene expression was determined using Real-Time SYBR Green PCR Master Mix (Applied Biosystems, Calif., USA) on a QPCR System. […]

O=[N][Fe]1([N]=O)[S](CCO)[Fe]([N]=O)([N]=O)[S]1CCO [Free DNIC, Fe(μ-SCH2CH2OH)2(NO)4]
Gene expression IL-10 (M2 type): 1,12 ± 0.16
